According to PubChem BioAssay AID1498 (National Center for Advancing Translational Sciences (NCATS), 2009):
Some of the results follow. The main result of the screen is listed elsewhere. These columns were measured beside it and carry no call. The list favours compounds with an active or inconclusive main result. Potencies come from curve fits of mixed quality, noted in brackets.

Experiment: Confirmation Concentration-Response Assay for Modulators of Lamin A Splicing
Details: HeLa lamin A splicing GFP/RFP minigene, Acumen, 48 h; for ratio activity: GFP/RFP ratio at top concentration; for ratio activity / RFP activity: at 46.1 µM; for RFP activity: RFP channel at top concentration
Excerpt: NCGC Assay Overview: Hutchinson-Gilford Progeria Syndrome (HGPS) is a pediatric premature aging disease caused by a spontaneous mutation in the lamin A/C (LMNA) gene. The mutation activates a cryptic splice site in the LMNA pre-mRNA which results in production of a pre-lamin A protein that cannot be processed properly. The mutant protein accumulates in the nucleus and negatively affects numerous cellular functions. Correction of the splicing defect in HGPS patient cells using a targeted oligonucleotide (exo11) leads to reversal of the cellular disease phenotypes. To identify small molecule modulators of aberrant LMNA splicing, a homogenous assay was constructed in HeLa cells that used a GFP containing minigene to report on correction of aberrant splicing in lamin A and a RFP (DsRed2) to report on cell viability, uniformity and nonspecific effects on the assay signal. This assay was adapted to laser-scanning microplate cytometry (Acumen, TTP Labtech) where miniaturization of the assay to a 1,536-well plate format was possible. Select compounds active in the primary screen (AID 1487) were chosen for confirmation based on potency, efficacy, SAR and activity in other assays in PubChem and at NCGC. References: Bowen, W. P.; Wylie, P. G. Application of Laser-Scanning Fluorescence Microplate Cytometry in High Content Screening. Assay Drug Dev Technol 2006;4:209-221. Scaffidi P, Misteli T. Reversal of the cellular phenotype in the premature aging disease Hutchinson-Gilford progeria syndrome. Nat. Med. 2005;11:440-445.
NCGC Assay Protocol Summary: Reagents/Controls: Stable clones expressing DsRed2 and lamin A-EGFP were generated by Cell and Molecular Technologies in S3 HeLa cells. HeLa cells were prepared for the assay when they were 70-90% confluent. The cells were counted and resuspended in Opti-MEM I (no phenol red; Gibco), 2% FBS, 1% penicillin/ streptomycin (Gibco) at concentration of 120 cells/uL concentration. The suspension was passed through a Falcon basket filter with pore size 40um (Beckton Dickson). Control titrations: column […] 1536-well plate contained a sixteen point titration (1:2 dilutions) in duplicate of ancitabine (Sigma: A8598) beginning at 40 uM final concentration. Column 2 contained a sixteen point titration (1:2 dilutions) of cycloheximide beginning at 1.4 mM final concentration. Column 3 contained ancitabine at 40 uM and column 4 contained was the vehicle control (0.5% DMSO final concentration). Assay Steps: 5 uL of HeLa cells were plated in Aurora LoBase black clear bottom (cyclic-olefin polymer) 1536-well plates at a final density of 600 cells/well. Controls and library compounds were added with a 1536-well pin array using the Kalypsys pin-tool. The plates were then incubated for 48 hrs in a cell-culture incubator (37 °C; 5% CO2, 98% humidity). Following incubation the plates were read on the Acumen Explorer using the 488 nm laser. Data was collected on objects between 10 and 100 um in size. Cell objects were defined by a 15 um width x 10 um depth filter. The ratio of the total object intensity in PMT1 (500-530 nm emission; GFP) over PMT3 (575-640 nm emission; RFP) was calculated for analysis. Keywords: NIH Roadmap, MLSCN, MLI, MLSMR, qHTS, NCGC, lamin A, Progeria, RNA splicing.

[1] = measured here: GFP/RFP ratio splicing readout
[2] = measured here: RFP viability/nonspecific counter channel

Compound	ratio activity [%]	RFP activity [%]	AC50 [1]	AC50 [2]
CCC(=Nc1ccc(Cc2ccncc2)cc1)c1c(O)n(C)c(=O)n(C)c1=O	-5.71	-31.4		
COc1cc([C@H]2c3cc4c(cc3[C@@H](O[C@H]3O[C@H]5CO[C@@H](C)O[C@H]5[C@@H](O)[C@@H]3O)[C@@H]3COC(=O)[C@H]23)OCO4)cc(OC)c1O	-36.7	15.7	0.178 µM [falling, full curve]	0.158 µM [rising, full curve, poor fit]
O=C(NCc1ccco1)/C(=C/c1cccc(C(F)(F)F)c1)c1nc2ccccc2[nH]1	-36.2	-21.7	12.6 µM [falling, full curve, poor fit]	5.01 µM [falling, full curve, poor fit]
Cc1ccc(-c2cc(C(=O)N/N=C/c3c(C)nn(-c4ccccc4)c3C)n[nH]2)s1	-19	-50.7	2 µM [falling, full curve, poor fit]	8.91 µM [falling, full curve, poor fit]
Cc1ccccc1S(=O)(=O)Cc1ccc(C(=O)N2CCN(c3cccc(C)c3C)CC2)o1	-23.6	-52.5	0.708 µM [falling, full curve, poor fit]	0.0126 µM [rising, full curve, poor fit]
Cc1noc(C)c1-c1ccc2ncnc(NCc3ccccc3Cl)c2c1	-39.5	-8.82	14.1 µM [falling, full curve, poor fit]	
CCOc1c(Cl)cc(C(=O)Nc2ccccc2C(=O)O)cc1Cl	-45.4	13.4	7.08 µM [falling, full curve]	
CCOC(=O)c1c(-c2cccc(C)c2)csc1NC(=O)c1c(-c2ccccc2)noc1C	-49.2	21.7	0.562 µM [falling, full curve]	0.2 µM [rising, full curve, poor fit]
O=C(NCc1cccnc1)/C(=C\c1ccc(-c2cccc(Cl)c2)o1)S(=O)(=O)c1ccccc1	6.75	-76.7	0.891 µM [falling, full curve, poor fit]	7.94 µM [falling, full curve, poor fit]
Cc1onc(-c2ccccc2)c1C(=O)NC(=S)NNC(=O)c1ccccc1O	-22.4	67		3.98 µM [rising, full curve, poor fit]
O=C(Cn1ncc(Cl)c(Cl)c1=O)N1CCN(S(=O)(=O)c2ccc3ccccc3c2)CC1	-34.7	-23.7	39.8 µM [falling, single point]	8.91 µM [falling, full curve, poor fit]
Cc1[nH]n(-c2nc(-c3cccc([N+](=O)[O-])c3)cs2)c(=O)c1C	-34.4	5.87	28.2 µM [falling, partial curve, poor fit]	

Part of the list above in order of count of non-hydrogen atoms, largest number first.
Compound	ratio activity [%]	RFP activity [%]	AC50 [1]	AC50 [2]
Cc1ccccc1S(=O)(=O)Cc1ccc(C(=O)N2CCN(c3cccc(C)c3C)CC2)o1	-23.6	-52.5	0.708 µM [falling, full curve, poor fit]	0.0126 µM [rising, full curve, poor fit]
Cc1onc(-c2ccccc2)c1C(=O)NC(=S)NNC(=O)c1ccccc1O	-22.4	67		3.98 µM [rising, full curve, poor fit]
CCOc1c(Cl)cc(C(=O)Nc2ccccc2C(=O)O)cc1Cl	-45.4	13.4	7.08 µM [falling, full curve]	
